This passage reports cell count results from PubChem BioAssay AID463183 (Sanford-Burnham Center for Chemical Genomics, 2010).

The other results are listed elsewhere or left out. Further columns of the screen follow, without active or inactive calls. The list favours compounds with an active or inconclusive main result.

The nature of the assay: hepatocyte lipid droplet accumulation inhibitors, confirmation, imaging, AML12 mouse hepatocytes, single concentration, high-content (AID 463183).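 Also: cells counted after overnight compound exposure.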 Particulars: BODIPY lipid droplet imaging, measured here: cell count, cytotoxicity, at 5.2 µM, droplets induced with 100 µM oleic acid.
Molecule `CC1CCCN(C2=C(NS(=O)(=O)c3ccc(Br)cc3)C(=O)c3ccccc3C2=O)C1` (configuration not stated) yielded a cell count of 1620 cells.

The molecule `CN(C(=O)CSc1cc(C(=O)c2nccn2C)c2ccccc2n1)c1ccccc1` registered a cell count of 1570 cells.

As to `Cc1ccc(-n2nc3c(=O)n(CC(=O)NCCCc4ccccc4)nc(C)c3c2C)cc1`, the cell count was determined as 1500 cells.

Take `Cc1ccc(CNC(=O)c2ccc(N3CCC4(CC3)CC(c3ccccc3)=NO4)c(N)c2)cc1`: the cell count was determined as 1630 cells.

In turn, `O=C(NCCc1ccccc1)c1oc2ccccc2c1COc1ccccc1` showed a cell count of 1530 cells.

On to `Cc1cc(N2CCOCC2)n2nc(C)c(-c3ccccc3Cl)c2n1`, for which the cell count came to 1640 cells.

In turn, `O=C(Nc1ccccc1)C1=C[C@@H](C2CCCCC2)C[C@@H](OCc2ccc(CO)cc2)O1` showed a cell count of 1660 cells.

As to `CCCCOc1ccc(-c2ncc([N+](=O)[O-])cn2)cc1`, the cell count worked out at 1560 cells.

With `CCOC(=O)c1cc(NC(=O)N(C)C2CCCCC2)c(C)nc1C`, the cell count amounted to 1630 cells.

`COCCn1cnc2c(c1=O)c1nc3ccccc3nc1n2/N=C/c1ccc(OC)c(OC)c1` displayed a cell count of 1540 cells.

In turn, `O=C(CNc1ccccc1)N/N=C/c1cn(-c2ccccc2)nc1-c1ccccc1` displayed a cell count of 1690 cells.

As to `COc1ccc(NC(=O)c2sccc2C)cn1`, the cell count turned out to be 1630 cells.

Regarding `Cc1ccc(NC(=O)CCCc2c[nH]c3ccccc23)nc1`, the cell count is 1590 cells.

Molecule `COC(=O)COc1cccc(NC(=O)c2ccc(Cl)cc2)c1` gave a cell count of 1550 cells.

Consider `Oc1c(/C=C/C=C/C=Nc2ccccc2)sc(=S)n1Cc1ccccc1`, for which the cell count worked out at 1600 cells.

`COc1cccc(CNS(=O)(=O)c2ccc(S(=O)(=O)NC3CC3)cc2)c1`: the cell count is 1610 cells.

The molecule `Cc1ccc(N2C(N)=C(C#N)C(c3cc(CN4CCOCC4)cs3)C3=C2CC(C)(C)CC3=O)cc1` (configuration not stated) returned a cell count of 1630 cells.
